Binding data for 8 molecules are collected here from publication PMC10394025.

Results are given in words; binding and its absence hold for the method and conditions named. Binding seen in cells or lysates may run through a third protein. Some results given as binding are weak or reduced against the parent protein; the word gives no strength. For some assays here: Where a sequence is shown, tags or fusion partners need not be part of it.

For assay [1], the target named is T1, USP15 (endogenous, AML12 cells) (mouse (endogenous in AML12)) (UniProt Q8R5H1).
T1 sequence: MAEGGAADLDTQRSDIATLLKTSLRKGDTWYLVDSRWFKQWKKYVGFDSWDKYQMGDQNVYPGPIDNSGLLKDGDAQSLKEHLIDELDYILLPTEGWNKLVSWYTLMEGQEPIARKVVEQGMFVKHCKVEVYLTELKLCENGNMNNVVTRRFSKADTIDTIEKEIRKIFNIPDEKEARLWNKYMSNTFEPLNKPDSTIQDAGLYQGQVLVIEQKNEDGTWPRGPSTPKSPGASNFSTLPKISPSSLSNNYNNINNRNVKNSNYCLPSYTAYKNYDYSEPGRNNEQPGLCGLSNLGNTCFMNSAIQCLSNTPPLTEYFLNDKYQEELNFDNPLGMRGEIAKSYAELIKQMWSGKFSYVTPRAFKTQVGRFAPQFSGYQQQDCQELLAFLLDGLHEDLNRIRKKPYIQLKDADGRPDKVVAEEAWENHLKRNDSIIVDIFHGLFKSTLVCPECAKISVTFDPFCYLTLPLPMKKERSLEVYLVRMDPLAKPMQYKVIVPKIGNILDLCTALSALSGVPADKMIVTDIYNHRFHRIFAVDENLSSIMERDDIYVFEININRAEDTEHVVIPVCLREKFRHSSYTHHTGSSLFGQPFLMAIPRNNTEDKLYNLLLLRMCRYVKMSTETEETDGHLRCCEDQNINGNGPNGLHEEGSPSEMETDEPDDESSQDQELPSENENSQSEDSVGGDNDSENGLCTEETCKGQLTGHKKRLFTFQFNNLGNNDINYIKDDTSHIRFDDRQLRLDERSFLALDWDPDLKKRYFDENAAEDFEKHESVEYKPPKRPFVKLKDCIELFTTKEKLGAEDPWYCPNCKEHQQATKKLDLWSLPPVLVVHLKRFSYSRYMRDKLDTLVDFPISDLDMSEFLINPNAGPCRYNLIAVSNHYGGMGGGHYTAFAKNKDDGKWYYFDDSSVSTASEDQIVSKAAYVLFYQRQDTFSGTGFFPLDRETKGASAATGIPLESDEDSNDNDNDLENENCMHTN
Nature of the assay: co-IP; endogenous proteins; AML12 cell lysates immunoprecipitated using IgG and USP15 antibodies, protein A/G agarose beads, Western blot. (A western blot detects proteins with antibodies after separation by electrophoresis.)

The target of assay [2] is T2, USP15 (in vitro GST pulldown assay) (UniProt Q8R5H1).
T2 sequence: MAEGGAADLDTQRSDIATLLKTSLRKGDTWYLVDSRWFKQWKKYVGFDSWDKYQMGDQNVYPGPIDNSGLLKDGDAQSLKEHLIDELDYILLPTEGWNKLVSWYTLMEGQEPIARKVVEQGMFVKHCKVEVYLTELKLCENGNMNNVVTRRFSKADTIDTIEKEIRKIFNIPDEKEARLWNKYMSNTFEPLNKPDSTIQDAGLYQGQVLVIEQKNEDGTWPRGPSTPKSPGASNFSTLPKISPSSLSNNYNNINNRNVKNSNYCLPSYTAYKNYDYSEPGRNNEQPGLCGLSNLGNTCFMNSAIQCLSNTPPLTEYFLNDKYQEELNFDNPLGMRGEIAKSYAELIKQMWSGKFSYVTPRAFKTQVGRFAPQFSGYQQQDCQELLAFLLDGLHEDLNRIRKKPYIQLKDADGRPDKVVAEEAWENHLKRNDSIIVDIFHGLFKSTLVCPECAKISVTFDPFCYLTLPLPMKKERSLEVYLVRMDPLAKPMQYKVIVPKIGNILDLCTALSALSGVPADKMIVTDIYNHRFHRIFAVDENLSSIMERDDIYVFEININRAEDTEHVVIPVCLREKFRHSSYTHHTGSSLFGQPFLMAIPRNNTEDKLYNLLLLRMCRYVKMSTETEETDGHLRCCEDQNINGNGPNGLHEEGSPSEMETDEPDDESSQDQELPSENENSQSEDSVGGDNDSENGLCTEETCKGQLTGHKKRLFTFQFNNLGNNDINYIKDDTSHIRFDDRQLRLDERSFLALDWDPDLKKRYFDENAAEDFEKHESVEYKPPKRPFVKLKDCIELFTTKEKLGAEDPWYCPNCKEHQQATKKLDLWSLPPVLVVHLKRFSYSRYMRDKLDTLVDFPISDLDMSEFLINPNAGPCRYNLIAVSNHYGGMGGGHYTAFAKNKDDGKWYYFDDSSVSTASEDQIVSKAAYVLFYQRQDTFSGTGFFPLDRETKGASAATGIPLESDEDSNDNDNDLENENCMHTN
Nature of the assay: pull-down; in vitro GST pulldown assay; which protein carried GST is not told.

Another assay has as its target T3, FLAG-USP15 (HEK293) (UniProt Q8R5H1).
T3 sequence: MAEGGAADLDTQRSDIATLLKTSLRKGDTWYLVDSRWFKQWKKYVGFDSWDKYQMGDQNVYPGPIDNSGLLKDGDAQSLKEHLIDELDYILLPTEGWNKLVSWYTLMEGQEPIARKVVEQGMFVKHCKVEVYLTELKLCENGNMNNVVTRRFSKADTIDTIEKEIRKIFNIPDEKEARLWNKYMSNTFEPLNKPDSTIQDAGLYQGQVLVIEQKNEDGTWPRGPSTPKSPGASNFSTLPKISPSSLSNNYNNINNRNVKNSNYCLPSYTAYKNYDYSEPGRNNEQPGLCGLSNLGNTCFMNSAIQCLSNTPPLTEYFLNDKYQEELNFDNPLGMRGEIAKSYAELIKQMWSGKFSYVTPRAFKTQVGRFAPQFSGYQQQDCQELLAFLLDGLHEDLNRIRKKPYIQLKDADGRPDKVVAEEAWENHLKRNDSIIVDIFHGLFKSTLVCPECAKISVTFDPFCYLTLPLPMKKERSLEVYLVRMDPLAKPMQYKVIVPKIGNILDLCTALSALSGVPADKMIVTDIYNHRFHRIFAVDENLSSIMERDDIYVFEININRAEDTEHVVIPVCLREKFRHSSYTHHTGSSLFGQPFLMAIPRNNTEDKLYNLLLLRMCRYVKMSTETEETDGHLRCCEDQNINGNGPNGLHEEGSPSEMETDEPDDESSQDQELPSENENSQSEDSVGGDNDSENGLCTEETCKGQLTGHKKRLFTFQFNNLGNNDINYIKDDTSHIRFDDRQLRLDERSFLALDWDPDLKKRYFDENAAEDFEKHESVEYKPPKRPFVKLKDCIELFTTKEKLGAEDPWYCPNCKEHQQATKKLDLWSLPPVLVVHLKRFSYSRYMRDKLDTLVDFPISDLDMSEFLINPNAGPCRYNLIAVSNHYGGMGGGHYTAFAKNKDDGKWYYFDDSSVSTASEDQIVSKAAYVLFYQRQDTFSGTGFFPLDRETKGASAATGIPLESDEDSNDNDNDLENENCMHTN
The assay is described as follows: co-IP; HEK293 cells transfected with FLAG-USP15, HA-FABP4 or HA-Perilipin1 plasmids; immunoprecipitated using a FLAG antibody, Western blot.

B1: Perilipin2 (endogenous, AML12 cells) (protein, UniProt P43883 1-425)
chain: MAAAVVDPQQSVVMRVANLPLVSSTYDLVSSAYVSTKDQYPYLRSVCEMAEKGVKTVTSAAMTSALPIIQKLEPQIAVANTYACKGLDRMEERLPILNQPTSEIVASARGAVTGAKDVVTTTMAGAKDSVASTVSGVVDKTKGAVTGSVERTKSVVNGSINTVLGMVQFMNSGVDNAITKSELLVDQYFPLTQEELEMEAKKVEGFDMVQKPSNYERLESLSTKLCSRAYHQALSRVKEAKQKSQETISQLHSTVHLIEFARKNMHSANQKIQGAQDKLYVSWVEWKRSIGYDDTDESHCVEHIESRTLAIARNLTQQLQTTCQTVLVNAQGLPQNIQDQAKHLGVMAGDIYSVFRNAASFKEVSDGVLTSSKGQLQKMKESLDEVMDYFVNNTPLNWLVGPFYPQSTEVNKASLKVQQSEVKAQ
With B1, in assay [1], the binding entry was “binds”.

B2: Perilipin1 (in vitro GST pulldown assay) (protein, UniProt Q8CGN5 1-517)
chain: MSMNKGPTLLDGDLPEQENVLQRVLQLPVVSGTCECFQKTYNSTKEAHPLVASVCNAYEKGVQGASNLAAWSMEPVVRRLSTQFTAANELACRGLDHLEEKIPALQYPPEKIASELKGTISTRLRSARNSISVPIASTSDKVLGATLAGCELALGMAKETAEYAANTRVGRLASGGADLALGSIEKVVEFLLPPDKESAPSSGRQRTQKAPKAKPSLVRRVSTLANTLSRHTMQTTAWALKQGHSLAMWIPGVAPLSSLAQWGASAAMQVVSRRQSEVRVPWLHNLAASQDESHDDQTDTEGEETDDEEEEEESEAEENVLREVTALPNPRGLLGGVVHTVQNTLRNTISAVTWAPAAVLGTVGRILHLTPAQAVSSTKGRAMSLSDALKGVTDNVVDTVVHYVPLPRLSLMEPESEFRDIDNPSAEAERKGSGARPASPESTPRPGQPRGSLRSVRGLSAPSCPGLDDKTEASARPGFLAMPREKPARRVSDSFFRPSVMEPILGRAQYSQLRKKS
As for B2, in assay [2], the binding entry is reported as “binds”.

B3: HA-Perilipin1 (HEK293) (protein, UniProt Q8CGN5 1-517)
chain: MSMNKGPTLLDGDLPEQENVLQRVLQLPVVSGTCECFQKTYNSTKEAHPLVASVCNAYEKGVQGASNLAAWSMEPVVRRLSTQFTAANELACRGLDHLEEKIPALQYPPEKIASELKGTISTRLRSARNSISVPIASTSDKVLGATLAGCELALGMAKETAEYAANTRVGRLASGGADLALGSIEKVVEFLLPPDKESAPSSGRQRTQKAPKAKPSLVRRVSTLANTLSRHTMQTTAWALKQGHSLAMWIPGVAPLSSLAQWGASAAMQVVSRRQSEVRVPWLHNLAASQDESHDDQTDTEGEETDDEEEEEESEAEENVLREVTALPNPRGLLGGVVHTVQNTLRNTISAVTWAPAAVLGTVGRILHLTPAQAVSSTKGRAMSLSDALKGVTDNVVDTVVHYVPLPRLSLMEPESEFRDIDNPSAEAERKGSGARPASPESTPRPGQPRGSLRSVRGLSAPSCPGLDDKTEASARPGFLAMPREKPARRVSDSFFRPSVMEPILGRAQYSQLRKKS
As for B3, in the assay with FLAG-USP15 (HEK293), the binding result is “binds”.

B4: Perilipin1 (endogenous, AML12 cells) (protein, UniProt Q8CGN5 1-517)
chain: MSMNKGPTLLDGDLPEQENVLQRVLQLPVVSGTCECFQKTYNSTKEAHPLVASVCNAYEKGVQGASNLAAWSMEPVVRRLSTQFTAANELACRGLDHLEEKIPALQYPPEKIASELKGTISTRLRSARNSISVPIASTSDKVLGATLAGCELALGMAKETAEYAANTRVGRLASGGADLALGSIEKVVEFLLPPDKESAPSSGRQRTQKAPKAKPSLVRRVSTLANTLSRHTMQTTAWALKQGHSLAMWIPGVAPLSSLAQWGASAAMQVVSRRQSEVRVPWLHNLAASQDESHDDQTDTEGEETDDEEEEEESEAEENVLREVTALPNPRGLLGGVVHTVQNTLRNTISAVTWAPAAVLGTVGRILHLTPAQAVSSTKGRAMSLSDALKGVTDNVVDTVVHYVPLPRLSLMEPESEFRDIDNPSAEAERKGSGARPASPESTPRPGQPRGSLRSVRGLSAPSCPGLDDKTEASARPGFLAMPREKPARRVSDSFFRPSVMEPILGRAQYSQLRKKS
Turning to B4, the binding entry in assay [1] is reported as “binds”.

B5: FABP4 (endogenous, AML12 cells) (protein, UniProt P04117 1-132)
chain: MCDAFVGTWKLVSSENFDDYMKEVGVGFATRKVAGMAKPNMIISVNGDLVTIRSESTFKNTEISFKLGVEFDEITADDRKVKSIITLDGGALVQVQKWDGKSTTIKRKRDGDKLVVECVMKGVTSTRVYERA
On to B5, for which, in assay [1], the binding entry is on record as “binds”.

B6: FABP4 (in vitro GST pulldown assay) (protein, UniProt P04117 1-132)
chain: MCDAFVGTWKLVSSENFDDYMKEVGVGFATRKVAGMAKPNMIISVNGDLVTIRSESTFKNTEISFKLGVEFDEITADDRKVKSIITLDGGALVQVQKWDGKSTTIKRKRDGDKLVVECVMKGVTSTRVYERA
Take B6: in assay [2], the binding entry is on record as “binds”.

B7: HA-FABP4 (HEK293) (protein, UniProt P04117 1-132)
chain: MCDAFVGTWKLVSSENFDDYMKEVGVGFATRKVAGMAKPNMIISVNGDLVTIRSESTFKNTEISFKLGVEFDEITADDRKVKSIITLDGGALVQVQKWDGKSTTIKRKRDGDKLVVECVMKGVTSTRVYERA
In the case of B7, the binding result with FLAG-USP15 (HEK293) was “binds”.

B8: FABP1 (endogenous, AML12 cells) (protein, UniProt P12710 1-127)
chain: MNFSGKYQLQSQENFEPFMKAIGLPEDLIQKGKDIKGVSEIVHEGKKIKLTITYGPKVVRNEFTLGEECELETMTGEKVKAVVKLEGDNKMVTTFKGIKSVTELNGDTITNTMTLGDIVYKRVSKRI
In the case of B8, the binding entry in assay [1] was “binds”.
